{"source": "PubChem BioAssay AID1224830 (NIAID, 2016)", "test": "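Host factors that control LPS-induced TNF expression in human macrophages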 (primary screen)", "system": "human THP-1 monocytic leukaemia cells, TNF dual-luciferase reporter clone, PMA-differentiated to macrophage-like cells", "knock-down reagent": "siRNA pool against human genes, 50 nM", "time to read-out": "LPS for 4 h, given about 3 days after siRNA transfection", "challenge": "bacterial LPS (TLR4 ligand), 10 ng/ml", "measurement": "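TNF firefly reporter luminescence divided by renilla, normalised to the plate median, then turned into a robust z-score for each replicate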", "reading the numbers": "TNF reporter robust z-score: higher = stronger TNF reporter response to LPS", "hit rule": "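a well is active when its z-score exceeds 2.8 or falls below -1.5; control wells carry no call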", "note": "Here is an unselected part of about 18,000 reagents. About 2,900 of all reagents (16%) were called active. 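Calls are made per well; low scores hint the gene aids the LPS response, high scores that it dampens it.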 Reagents against one gene are numbered here. Repeated entries: four replicate wells of each siRNA pool."}
{"target":"ABRAXAS2 (GeneID 23172)","reagent no.":1,"TNF reporter robust z-score":0.95,"activity call":"inactive"}
{"target":"ABRAXAS2 (GeneID 23172)","reagent no.":1,"TNF reporter robust z-score":1.27,"activity call":"inactive"}
{"target":"ABRAXAS2 (GeneID 23172)","reagent no.":1,"TNF reporter robust z-score":-0.98,"activity call":"inactive"}
{"target":"ABRAXAS2 (GeneID 23172)","reagent no.":1,"TNF reporter robust z-score":-0.68,"activity call":"inactive"}
{"target":"OR10A3 (GeneID 26496)","reagent no.":1,"TNF reporter robust z-score":0.72,"activity call":"inactive"}
{"target":"OR10A3 (GeneID 26496)","reagent no.":1,"TNF reporter robust z-score":0.55,"activity call":"inactive"}
{"target":"OR10A3 (GeneID 26496)","reagent no.":1,"TNF reporter robust z-score":0.53,"activity call":"inactive"}
{"target":"OR10A3 (GeneID 26496)","reagent no.":1,"TNF reporter robust z-score":1.58,"activity call":"inactive"}
{"target":"CSAG2 (GeneID 102723547)","reagent no.":1,"TNF reporter robust z-score":-1.51,"activity call":"active"}
{"target":"CSAG2 (GeneID 102723547)","reagent no.":1,"TNF reporter robust z-score":-1.88,"activity call":"active"}
{"target":"CSAG2 (GeneID 102723547)","reagent no.":1,"TNF reporter robust z-score":-1.49,"activity call":"inactive"}
{"target":"CSAG2 (GeneID 102723547)","reagent no.":1,"TNF reporter robust z-score":-1.32,"activity call":"inactive"}
{"target":"CSAG2 (GeneID 102723547)","reagent no.":2,"TNF reporter robust z-score":0.27,"activity call":"inactive"}
{"target":"CSAG2 (GeneID 102723547)","reagent no.":2,"TNF reporter robust z-score":0.81,"activity call":"inactive"}
{"target":"CSAG2 (GeneID 102723547)","reagent no.":2,"TNF reporter robust z-score":0.74,"activity call":"inactive"}
{"target":"CSAG2 (GeneID 102723547)","reagent no.":2,"TNF reporter robust z-score":2.25,"activity call":"inactive"}
{"target":"CCL24 (GeneID 6369)","reagent no.":1,"TNF reporter robust z-score":-0.27,"activity call":"inactive"}
{"target":"CCL24 (GeneID 6369)","reagent no.":1,"TNF reporter robust z-score":0.91,"activity call":"inactive"}
{"target":"CCL24 (GeneID 6369)","reagent no.":1,"TNF reporter robust z-score":0.18,"activity call":"inactive"}
{"target":"CCL24 (GeneID 6369)","reagent no.":1,"TNF reporter robust z-score":-0.33,"activity call":"inactive"}
{"target":"ZNF517 (GeneID 340385)","reagent no.":1,"TNF reporter robust z-score":-0.13,"activity call":"inactive"}
{"target":"ZNF517 (GeneID 340385)","reagent no.":1,"TNF reporter robust z-score":-0.2,"activity call":"inactive"}
{"target":"ZNF517 (GeneID 340385)","reagent no.":1,"TNF reporter robust z-score":-1.17,"activity call":"inactive"}
{"target":"ZNF517 (GeneID 340385)","reagent no.":1,"TNF reporter robust z-score":0.14,"activity call":"inactive"}
{"target":"GFM1 (GeneID 85476)","reagent no.":1,"TNF reporter robust z-score":0.85,"activity call":"inactive"}
{"target":"GFM1 (GeneID 85476)","reagent no.":1,"TNF reporter robust z-score":0.07,"activity call":"inactive"}
{"target":"GFM1 (GeneID 85476)","reagent no.":1,"TNF reporter robust z-score":-0.24,"activity call":"inactive"}
{"target":"GFM1 (GeneID 85476)","reagent no.":1,"TNF reporter robust z-score":0.64,"activity call":"inactive"}
{"target":"ROCK2 (GeneID 9475)","reagent no.":1,"TNF reporter robust z-score":0.81,"activity call":"inactive"}
{"target":"ROCK2 (GeneID 9475)","reagent no.":1,"TNF reporter robust z-score":0.47,"activity call":"inactive"}
{"target":"ROCK2 (GeneID 9475)","reagent no.":1,"TNF reporter robust z-score":-1.26,"activity call":"inactive"}
{"target":"ROCK2 (GeneID 9475)","reagent no.":1,"TNF reporter robust z-score":-0.7,"activity call":"inactive"}
{"target":"TAF8 (GeneID 129685)","reagent no.":1,"TNF reporter robust z-score":1,"activity call":"inactive"}
{"target":"TAF8 (GeneID 129685)","reagent no.":1,"TNF reporter robust z-score":0.13,"activity call":"inactive"}
{"target":"TAF8 (GeneID 129685)","reagent no.":1,"TNF reporter robust z-score":1.72,"activity call":"inactive"}
{"target":"TAF8 (GeneID 129685)","reagent no.":1,"TNF reporter robust z-score":-0.22,"activity call":"inactive"}

Part of the list above, set out differently:
{"target": "ROCK2 (GeneID 9475)", "reagent no.": 1, "TNF reporter robust z-score": 0.81, "activity call": "inactive"}
{"target": "ROCK2 (GeneID 9475)", "reagent no.": 1, "TNF reporter robust z-score": 0.47, "activity call": "inactive"}
{"target": "ROCK2 (GeneID 9475)", "reagent no.": 1, "TNF reporter robust z-score": -1.26, "activity call": "inactive"}
{"target": "ROCK2 (GeneID 9475)", "reagent no.": 1, "TNF reporter robust z-score": -0.7, "activity call": "inactive"}
{"target": "TAF8 (GeneID 129685)", "reagent no.": 1, "TNF reporter robust z-score": 1, "activity call": "inactive"}
{"target": "TAF8 (GeneID 129685)", "reagent no.": 1, "TNF reporter robust z-score": 0.13, "activity call": "inactive"}

Further entries follow:
{"target":"SLITRK1 (GeneID 114798)","reagent no.":1,"TNF reporter robust z-score":0.8,"activity call":"inactive"}
{"target":"SLITRK1 (GeneID 114798)","reagent no.":1,"TNF reporter robust z-score":1.6,"activity call":"inactive"}
{"target":"SLITRK1 (GeneID 114798)","reagent no.":1,"TNF reporter robust z-score":1.1,"activity call":"inactive"}
{"target":"SLITRK1 (GeneID 114798)","reagent no.":1,"TNF reporter robust z-score":3.15,"activity call":"active"}
{"target":"PLCH1 (GeneID 23007)","reagent no.":1,"TNF reporter robust z-score":0.03,"activity call":"inactive"}
{"target":"PLCH1 (GeneID 23007)","reagent no.":1,"TNF reporter robust z-score":-0.14,"activity call":"inactive"}
{"target":"PLCH1 (GeneID 23007)","reagent no.":1,"TNF reporter robust z-score":-0.66,"activity call":"inactive"}
{"target":"PLCH1 (GeneID 23007)","reagent no.":1,"TNF reporter robust z-score":0.19,"activity call":"inactive"}
{"target":"TENT5C (GeneID 54855)","reagent no.":1,"TNF reporter robust z-score":-0.17,"activity call":"inactive"}
{"target":"TENT5C (GeneID 54855)","reagent no.":1,"TNF reporter robust z-score":0.39,"activity call":"inactive"}
{"target":"TENT5C (GeneID 54855)","reagent no.":1,"TNF reporter robust z-score":0,"activity call":"inactive"}
{"target":"GTSF1L (GeneID 149699)","reagent no.":1,"TNF reporter robust z-score":-0.93,"activity call":"inactive"}
{"target":"GTSF1L (GeneID 149699)","reagent no.":1,"TNF reporter robust z-score":-0.69,"activity call":"inactive"}
{"target":"GTSF1L (GeneID 149699)","reagent no.":1,"TNF reporter robust z-score":-0.01,"activity call":"inactive"}
{"target":"GTSF1L (GeneID 149699)","reagent no.":1,"TNF reporter robust z-score":0.31,"activity call":"inactive"}
{"target":"ERLEC1 (GeneID 27248)","reagent no.":1,"TNF reporter robust z-score":1.27,"activity call":"inactive"}
{"target":"ERLEC1 (GeneID 27248)","reagent no.":1,"TNF reporter robust z-score":2,"activity call":"inactive"}
{"target":"ERLEC1 (GeneID 27248)","reagent no.":1,"TNF reporter robust z-score":1.1,"activity call":"inactive"}
{"target":"ERLEC1 (GeneID 27248)","reagent no.":1,"TNF reporter robust z-score":-0.13,"activity call":"inactive"}
{"target":"CRMP1 (GeneID 1400)","reagent no.":1,"TNF reporter robust z-score":0.07,"activity call":"inactive"}
{"target":"CRMP1 (GeneID 1400)","reagent no.":1,"TNF reporter robust z-score":0.86,"activity call":"inactive"}
{"target":"CRMP1 (GeneID 1400)","reagent no.":1,"TNF reporter robust z-score":-0.7,"activity call":"inactive"}
{"target":"CRMP1 (GeneID 1400)","reagent no.":1,"TNF reporter robust z-score":-0.07,"activity call":"inactive"}
{"target":"U2SURP (GeneID 23350)","reagent no.":1,"TNF reporter robust z-score":-1.25,"activity call":"inactive"}
{"target":"U2SURP (GeneID 23350)","reagent no.":1,"TNF reporter robust z-score":-0.44,"activity call":"inactive"}
{"target":"U2SURP (GeneID 23350)","reagent no.":1,"TNF reporter robust z-score":-0.64,"activity call":"inactive"}
{"target":"U2SURP (GeneID 23350)","reagent no.":1,"TNF reporter robust z-score":-0.57,"activity call":"inactive"}
